The results in this text go back to the supplement of paper PMC11098740.

By UniProt entry, the sequences of proteins in these tests, tags left out.
UniProt O14980, whole entry: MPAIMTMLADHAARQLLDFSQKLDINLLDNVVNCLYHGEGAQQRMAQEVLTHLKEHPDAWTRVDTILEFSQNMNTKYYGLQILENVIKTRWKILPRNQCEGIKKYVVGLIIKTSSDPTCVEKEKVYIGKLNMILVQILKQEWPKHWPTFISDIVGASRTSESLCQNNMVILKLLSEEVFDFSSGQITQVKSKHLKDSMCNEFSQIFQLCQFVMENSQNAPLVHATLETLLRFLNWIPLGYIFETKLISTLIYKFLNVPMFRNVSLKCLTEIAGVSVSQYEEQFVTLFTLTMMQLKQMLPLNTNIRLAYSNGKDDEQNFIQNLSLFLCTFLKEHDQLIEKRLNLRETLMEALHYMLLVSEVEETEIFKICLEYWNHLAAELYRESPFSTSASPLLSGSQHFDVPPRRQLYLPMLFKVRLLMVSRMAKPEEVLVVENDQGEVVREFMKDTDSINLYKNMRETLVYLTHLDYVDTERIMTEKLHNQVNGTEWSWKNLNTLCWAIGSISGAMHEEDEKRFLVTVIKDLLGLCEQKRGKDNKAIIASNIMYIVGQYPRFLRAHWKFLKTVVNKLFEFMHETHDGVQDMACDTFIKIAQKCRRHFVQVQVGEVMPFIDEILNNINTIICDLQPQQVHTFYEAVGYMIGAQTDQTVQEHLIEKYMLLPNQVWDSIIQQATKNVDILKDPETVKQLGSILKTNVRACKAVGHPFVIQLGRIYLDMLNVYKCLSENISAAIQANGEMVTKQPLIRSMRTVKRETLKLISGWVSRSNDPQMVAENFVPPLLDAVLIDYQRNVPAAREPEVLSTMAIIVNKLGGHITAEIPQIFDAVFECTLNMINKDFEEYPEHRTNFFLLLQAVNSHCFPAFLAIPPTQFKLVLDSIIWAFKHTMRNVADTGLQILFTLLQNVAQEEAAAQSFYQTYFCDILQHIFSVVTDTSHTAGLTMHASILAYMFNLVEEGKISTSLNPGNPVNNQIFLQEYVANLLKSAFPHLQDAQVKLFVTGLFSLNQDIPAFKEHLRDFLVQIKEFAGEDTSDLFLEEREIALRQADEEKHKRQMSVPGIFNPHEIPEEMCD

This test addresses XPO1 (intron 15 mScarlet tag, HAP1) (UniProt O14980). Kind of test: XPO1 fluorescence intensity change vs DMSO (log2 fold change); higher = more XPO1 protein. The following applies: 6 h.

Where a name gives a salt, the structure may show the parent alone. The list shows a part of the results. Single values are uncertain, as repeats are few or missing.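 Pooled together, 41 HAP1 clones carry intronic fluorescent tags on 61 cancer-associated proteins, and each clone is recognized by its imaging pattern. Measurements are benchmarked against DMSO-treated control wells. dBET6, a BRD4 degrader, served as the positive control.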

On to `CC/C(=C(\c1ccc(O)cc1)c1ccc(OCCNC)cc1)c1ccccc1` [Endoxifen (hydrochloride)] (10 µM), for which the “XPO1 fluorescence intensity change (log2)” value was -0.0663. Then `O=C(/C=C/c1cccc(S(=O)(=O)Nc2ccccc2)c1)NO` [Belinostat] (20 µM), with -0.0649.

Consider `COc1cc(C)c(/C=C/C(C)=C/C=C/C(C)=C/C(=O)O)c(C)c1C` [Acitretin] (9.99941 µM), for which the “XPO1 fluorescence intensity change (log2)” value was -0.154. Then `Cc1nc2n(c(=O)c1CCN1CCC(c3noc4cc(F)ccc34)CC1)CCCC2` [Risperidone] (10.00083684 µM), with 0.167. Then `COc1cc2nccc(Oc3ccc(NC(=O)C4(C(=O)Nc5ccc(F)cc5)CC4)cc3)c2cc1OC` [Cabozantinib] (20 µM), with 0.0849. Turning to `C[C@@H](Oc1cc(-c2cnn(C3CCNCC3)c2)cnc1N)c1c(Cl)ccc(F)c1Cl` [Crizotinib] (20 µM), the “XPO1 fluorescence intensity change (log2)” value amounted to 0.0881.

As for `C[C@H](N)C(=O)O.N[C@@H](Cc1ccc(O)cc1)C(=O)O` [Glatiramer Acetate] (10 µM), the “XPO1 fluorescence intensity change (log2)” value stood at 0.197. Next, `NC12CC3CC(CC(C3)C1)C2` [Amantadine] (10 µM): 0.0428; `O=c1n(CCCN2CCN(c3cccc(Cl)c3)CC2)nc2ccccn12` [Trazodone] (10 µM): -0.0279; `CN(C)CCCN1c2ccccc2Sc2ccc(C(F)(F)F)cc21` [Triflupromazine] (10 µM): 0.0355. Regarding `CN(C)CC[C@@H](c1ccc(Cl)cc1)c1ccccn1` [Dexchlorpheniramine] (10.00011514 µM), the “XPO1 fluorescence intensity change (log2)” value is -0.0964. Then `N[C@@H]1CONC1=O` [D-Cycloserine] (10 µM), with 0.0166; and `CO[C@H]1C[C@@H]2CC[C@@H](C)[C@@](O)(O2)C(=O)C(=O)N2CCCC[C@H]2C(=O)O[C@H]([C@H](C)C[C@@H]2CC[C@@H](OC(=O)C(C)(CO)CO)[C@H](OC)C2)CC(=O)[C@H](C)/C=C(\C)[C@@H](O)[C@@H](OC)C(=O)[C@H](C)C[C@H](C)/C=C/C=C/C=C/1C` [Temsirolimus] (20 µM), with -0.0348; and `O=C(Nc1ccc([N+](=O)[O-])cc1Cl)c1cc(Cl)ccc1O` [Niclosamide] (9.99966 µM), with 0.222. Then `CCn1cc(C(=O)O)c(=O)c2cc(F)c(N3CCNCC3)nc21` [Enoxacin] (10 µM), with 0.0326; and `O=[N+]([O-])c1cnc(CO)n1CCO` [Hydroxymetronidazole] (10 µM), with 0.0165; and `O=C1c2cccc3c2[C@H](CCC3)CN1[C@@H]1CN2CCC1CC2` [Palonosetron] (10 µM), with -0.0906. Then `Oc1ncnc2[nH]ncc12` [Allopurinol] (10 µM), with -0.0285. For the molecule `OC(CCN1CCCCC1)(c1ccccc1)C1CCCCC1` (configuration not stated) [Trihexyphenidyl] (10.00006277 µM), the “XPO1 fluorescence intensity change (log2)” value was determined as 0.00837.

For `c1ccc([C@H]2CN3CCSC3=N2)cc1` [Levamisole] (10 µM), the “XPO1 fluorescence intensity change (log2)” value is -0.0406. Consider `N#Cc1ccc(C(c2ccc(C#N)cc2)n2cncn2)cc1` [Letrozole] (20 µM), for which the “XPO1 fluorescence intensity change (log2)” value is -0.188.

Take `C[C@@H](NCCCc1cccc(C(F)(F)F)c1)c1cccc2ccccc12` [Cinacalcet] (10 µM): the “XPO1 fluorescence intensity change (log2)” value was found to be 0.126. As for `CC1CNc2c(cccc2S(=O)(=O)N[C@@H](CCCNC(=N)N)C(=O)N2CC[C@@H](C)C[C@@H]2C(=O)O)C1` (some centres not stated) [Argatroban] (10.0004 µM), the “XPO1 fluorescence intensity change (log2)” value was 0.0408.

On to `C[N+]1(CCCCC[N+]2(C)CCCC2)CCCC1` [Pentolinium Tartrate] (10 µM), for which the “XPO1 fluorescence intensity change (log2)” value is 0.116. As for `CNC(=O)c1cc(Oc2ccc(NC(=O)Nc3ccc(Cl)c(C(F)(F)F)c3)c(F)c2)ccn1` [Regorafenib] (20 µM), the “XPO1 fluorescence intensity change (log2)” value is -0.07. On to `CNC[C@H](O)c1ccc(O)c(O)c1` [Epinephrine] (10 µM), for which the “XPO1 fluorescence intensity change (log2)” value came out at 0.122. Then `N=C(N)NC(=O)Cc1c(Cl)cccc1Cl` [Guanfacine] (10 µM), with -0.282; and `CC(=O)O[C@H]1C[C@@H]2CC[C@@H]3[C@H](CC[C@@]4(C)[C@H]3C[C@H]([N+]3(C)CCCCC3)[C@@H]4OC(C)=O)[C@@]2(C)C[C@@H]1N1CCCCC1` [Vecuronium Bromide] (10.00071805 µM), with 0.0468; and `NS(=O)(=O)Cc1noc2ccccc12` [Zonisamide] (10 µM), with 0.126. `CNC(=O)c1ccccc1Sc1ccc2c(/C=C/c3ccccn3)n[nH]c2c1` [Axitinib] (20 µM): the “XPO1 fluorescence intensity change (log2)” value was -0.117. Next, `O=C1CC2(CCCC2)C(O)C(=O)N1CCCCN1CCN(c2ncccn2)CC1` (configuration not stated) [6-Hydroxybuspirone] (10 µM): 0.0138; `CN1C(=O)CC(c2ccccc2)C1=O` (configuration not stated) [Phensuximide] (10 µM): 0.0603.
